# Data as given in the supplement of paper PMC6411743.
# Amino acid sequences for entries named in this document (tags omitted). A change or cut given only in a name is not applied to a line headed by its entry.
# UniProt Q5VV52: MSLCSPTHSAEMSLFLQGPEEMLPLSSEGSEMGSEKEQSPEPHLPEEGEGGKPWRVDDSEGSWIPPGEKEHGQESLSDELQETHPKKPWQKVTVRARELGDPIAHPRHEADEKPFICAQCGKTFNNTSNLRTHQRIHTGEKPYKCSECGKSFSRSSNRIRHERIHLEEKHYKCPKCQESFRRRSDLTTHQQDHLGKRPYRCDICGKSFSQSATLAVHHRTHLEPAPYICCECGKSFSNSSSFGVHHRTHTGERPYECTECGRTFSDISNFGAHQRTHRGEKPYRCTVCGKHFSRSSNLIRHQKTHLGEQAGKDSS
# UniProt Q5JTD0: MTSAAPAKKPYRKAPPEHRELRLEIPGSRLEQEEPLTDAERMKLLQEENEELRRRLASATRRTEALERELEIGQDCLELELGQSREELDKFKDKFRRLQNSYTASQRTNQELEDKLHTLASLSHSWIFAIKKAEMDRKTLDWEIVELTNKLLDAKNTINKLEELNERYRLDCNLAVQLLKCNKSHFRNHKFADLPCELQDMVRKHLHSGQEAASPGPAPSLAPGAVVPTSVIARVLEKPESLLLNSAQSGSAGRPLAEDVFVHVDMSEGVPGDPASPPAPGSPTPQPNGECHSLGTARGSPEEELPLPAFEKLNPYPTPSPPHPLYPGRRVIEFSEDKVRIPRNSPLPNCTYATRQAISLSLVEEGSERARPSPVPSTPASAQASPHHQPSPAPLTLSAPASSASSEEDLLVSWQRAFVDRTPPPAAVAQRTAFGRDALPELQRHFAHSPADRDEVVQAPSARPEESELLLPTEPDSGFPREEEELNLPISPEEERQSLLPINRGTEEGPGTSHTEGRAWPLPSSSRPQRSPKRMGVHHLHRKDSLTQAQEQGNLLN
# UniProt Q9BZJ0: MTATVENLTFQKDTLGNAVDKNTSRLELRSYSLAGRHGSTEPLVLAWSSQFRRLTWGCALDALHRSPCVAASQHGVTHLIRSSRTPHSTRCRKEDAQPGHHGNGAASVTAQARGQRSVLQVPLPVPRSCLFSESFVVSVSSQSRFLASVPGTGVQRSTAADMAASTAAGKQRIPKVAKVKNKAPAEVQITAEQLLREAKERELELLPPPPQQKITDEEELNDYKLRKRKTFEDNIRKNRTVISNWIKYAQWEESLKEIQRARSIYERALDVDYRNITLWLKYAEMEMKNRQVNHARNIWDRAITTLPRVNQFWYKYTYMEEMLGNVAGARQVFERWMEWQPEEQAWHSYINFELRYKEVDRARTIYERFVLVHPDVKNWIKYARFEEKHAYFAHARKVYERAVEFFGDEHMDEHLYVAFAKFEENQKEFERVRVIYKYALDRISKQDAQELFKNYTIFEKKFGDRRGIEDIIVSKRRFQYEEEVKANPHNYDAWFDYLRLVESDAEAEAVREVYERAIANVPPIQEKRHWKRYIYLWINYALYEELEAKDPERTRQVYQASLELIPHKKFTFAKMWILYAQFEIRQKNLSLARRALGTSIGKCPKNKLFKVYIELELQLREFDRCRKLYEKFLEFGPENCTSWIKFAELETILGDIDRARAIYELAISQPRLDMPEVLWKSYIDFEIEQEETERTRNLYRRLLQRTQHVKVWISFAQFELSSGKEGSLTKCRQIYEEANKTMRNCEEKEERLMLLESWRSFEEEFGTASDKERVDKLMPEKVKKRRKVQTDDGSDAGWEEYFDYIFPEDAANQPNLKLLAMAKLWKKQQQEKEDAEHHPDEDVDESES
# UniProt Q5EBL8: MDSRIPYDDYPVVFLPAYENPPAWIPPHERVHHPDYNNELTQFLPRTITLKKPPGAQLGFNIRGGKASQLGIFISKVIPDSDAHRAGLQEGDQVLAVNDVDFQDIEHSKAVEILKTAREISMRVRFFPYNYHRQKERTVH
# UniProt Q9H6K1: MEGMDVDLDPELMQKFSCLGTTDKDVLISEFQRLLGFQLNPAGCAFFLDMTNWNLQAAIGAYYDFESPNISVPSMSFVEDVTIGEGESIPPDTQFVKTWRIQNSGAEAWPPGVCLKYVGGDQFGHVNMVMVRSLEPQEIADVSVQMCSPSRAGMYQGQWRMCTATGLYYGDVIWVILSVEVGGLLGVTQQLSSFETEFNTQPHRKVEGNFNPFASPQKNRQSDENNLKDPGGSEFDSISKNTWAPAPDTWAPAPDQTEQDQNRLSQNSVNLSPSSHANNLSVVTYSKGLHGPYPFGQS
# UniProt Q6NTF9: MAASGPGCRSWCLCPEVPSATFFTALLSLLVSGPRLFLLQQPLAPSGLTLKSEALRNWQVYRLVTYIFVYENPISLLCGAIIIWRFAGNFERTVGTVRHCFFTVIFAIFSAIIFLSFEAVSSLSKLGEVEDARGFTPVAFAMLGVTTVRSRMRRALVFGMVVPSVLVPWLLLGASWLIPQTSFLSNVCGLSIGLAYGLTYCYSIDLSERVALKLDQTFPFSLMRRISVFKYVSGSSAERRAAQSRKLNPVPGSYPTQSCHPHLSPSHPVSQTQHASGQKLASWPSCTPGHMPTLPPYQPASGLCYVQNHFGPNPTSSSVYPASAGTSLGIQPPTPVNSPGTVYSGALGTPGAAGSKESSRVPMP
# UniProt Q5W0U4: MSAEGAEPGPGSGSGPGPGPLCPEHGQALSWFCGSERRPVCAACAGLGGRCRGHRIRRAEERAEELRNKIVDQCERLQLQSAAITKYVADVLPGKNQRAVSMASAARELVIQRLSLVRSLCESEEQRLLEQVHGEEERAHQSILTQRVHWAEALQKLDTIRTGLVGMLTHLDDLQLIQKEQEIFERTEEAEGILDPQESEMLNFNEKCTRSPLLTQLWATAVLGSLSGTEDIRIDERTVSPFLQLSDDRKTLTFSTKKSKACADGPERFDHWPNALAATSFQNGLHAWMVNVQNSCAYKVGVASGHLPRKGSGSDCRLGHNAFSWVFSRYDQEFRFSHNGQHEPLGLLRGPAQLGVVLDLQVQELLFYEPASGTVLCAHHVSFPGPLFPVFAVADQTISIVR
# UniProt Q5THK1: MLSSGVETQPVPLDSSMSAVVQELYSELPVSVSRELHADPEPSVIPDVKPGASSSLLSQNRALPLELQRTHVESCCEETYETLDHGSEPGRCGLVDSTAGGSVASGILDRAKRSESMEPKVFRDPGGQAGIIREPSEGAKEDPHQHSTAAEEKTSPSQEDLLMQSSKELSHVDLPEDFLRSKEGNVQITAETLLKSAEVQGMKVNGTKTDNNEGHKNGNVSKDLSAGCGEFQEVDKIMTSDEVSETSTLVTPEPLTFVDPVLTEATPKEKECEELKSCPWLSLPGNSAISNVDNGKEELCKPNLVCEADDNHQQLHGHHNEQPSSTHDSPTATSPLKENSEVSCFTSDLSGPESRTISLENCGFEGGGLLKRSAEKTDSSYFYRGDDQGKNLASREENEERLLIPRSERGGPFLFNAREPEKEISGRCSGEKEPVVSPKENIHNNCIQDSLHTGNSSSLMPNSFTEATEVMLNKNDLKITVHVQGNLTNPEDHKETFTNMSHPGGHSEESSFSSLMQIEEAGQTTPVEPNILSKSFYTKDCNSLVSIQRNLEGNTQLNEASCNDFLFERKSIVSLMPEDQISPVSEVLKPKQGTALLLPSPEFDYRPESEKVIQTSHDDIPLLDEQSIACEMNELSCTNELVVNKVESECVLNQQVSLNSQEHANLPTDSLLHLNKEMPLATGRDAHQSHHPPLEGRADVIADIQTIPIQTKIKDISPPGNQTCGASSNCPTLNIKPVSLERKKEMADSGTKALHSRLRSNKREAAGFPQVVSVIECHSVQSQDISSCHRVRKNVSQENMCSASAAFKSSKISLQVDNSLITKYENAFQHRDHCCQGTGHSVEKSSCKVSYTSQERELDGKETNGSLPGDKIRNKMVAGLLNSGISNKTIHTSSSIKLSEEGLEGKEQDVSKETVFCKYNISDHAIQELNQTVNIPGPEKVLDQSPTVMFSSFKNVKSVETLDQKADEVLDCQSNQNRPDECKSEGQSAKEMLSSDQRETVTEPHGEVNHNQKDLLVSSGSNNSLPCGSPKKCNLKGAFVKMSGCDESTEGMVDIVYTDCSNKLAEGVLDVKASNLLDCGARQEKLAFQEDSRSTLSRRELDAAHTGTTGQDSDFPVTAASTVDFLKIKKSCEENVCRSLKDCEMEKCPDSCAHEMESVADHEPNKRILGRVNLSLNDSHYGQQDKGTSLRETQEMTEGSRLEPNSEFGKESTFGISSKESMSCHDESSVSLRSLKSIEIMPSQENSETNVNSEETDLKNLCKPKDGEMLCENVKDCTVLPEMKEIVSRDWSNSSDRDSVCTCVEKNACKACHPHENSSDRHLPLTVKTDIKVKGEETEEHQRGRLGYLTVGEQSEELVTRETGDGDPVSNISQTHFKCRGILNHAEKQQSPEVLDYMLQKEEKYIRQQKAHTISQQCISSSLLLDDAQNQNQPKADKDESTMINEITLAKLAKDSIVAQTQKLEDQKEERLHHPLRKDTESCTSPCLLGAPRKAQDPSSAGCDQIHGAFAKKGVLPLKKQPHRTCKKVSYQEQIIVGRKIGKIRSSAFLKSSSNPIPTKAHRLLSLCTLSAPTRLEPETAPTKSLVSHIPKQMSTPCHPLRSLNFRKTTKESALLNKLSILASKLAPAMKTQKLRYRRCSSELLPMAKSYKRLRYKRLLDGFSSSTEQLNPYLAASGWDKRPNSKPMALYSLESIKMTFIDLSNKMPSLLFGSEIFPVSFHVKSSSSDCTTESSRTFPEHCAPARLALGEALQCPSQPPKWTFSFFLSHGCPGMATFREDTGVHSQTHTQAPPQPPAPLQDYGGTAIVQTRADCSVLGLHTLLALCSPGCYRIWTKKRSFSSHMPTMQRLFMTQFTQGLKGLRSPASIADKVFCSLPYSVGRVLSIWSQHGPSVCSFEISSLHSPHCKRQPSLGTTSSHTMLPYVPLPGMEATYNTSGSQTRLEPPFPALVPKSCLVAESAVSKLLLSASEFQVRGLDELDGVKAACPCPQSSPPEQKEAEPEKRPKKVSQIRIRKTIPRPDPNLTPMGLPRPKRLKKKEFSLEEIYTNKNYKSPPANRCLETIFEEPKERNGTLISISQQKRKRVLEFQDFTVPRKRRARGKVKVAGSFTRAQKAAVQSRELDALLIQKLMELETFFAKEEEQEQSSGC
# UniProt Q6IAA8, whole entry: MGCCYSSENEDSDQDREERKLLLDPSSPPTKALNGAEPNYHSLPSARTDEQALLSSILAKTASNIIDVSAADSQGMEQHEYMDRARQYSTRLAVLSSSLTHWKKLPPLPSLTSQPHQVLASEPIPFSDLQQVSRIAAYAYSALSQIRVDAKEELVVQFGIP
# UniProt Q66K14, whole entry: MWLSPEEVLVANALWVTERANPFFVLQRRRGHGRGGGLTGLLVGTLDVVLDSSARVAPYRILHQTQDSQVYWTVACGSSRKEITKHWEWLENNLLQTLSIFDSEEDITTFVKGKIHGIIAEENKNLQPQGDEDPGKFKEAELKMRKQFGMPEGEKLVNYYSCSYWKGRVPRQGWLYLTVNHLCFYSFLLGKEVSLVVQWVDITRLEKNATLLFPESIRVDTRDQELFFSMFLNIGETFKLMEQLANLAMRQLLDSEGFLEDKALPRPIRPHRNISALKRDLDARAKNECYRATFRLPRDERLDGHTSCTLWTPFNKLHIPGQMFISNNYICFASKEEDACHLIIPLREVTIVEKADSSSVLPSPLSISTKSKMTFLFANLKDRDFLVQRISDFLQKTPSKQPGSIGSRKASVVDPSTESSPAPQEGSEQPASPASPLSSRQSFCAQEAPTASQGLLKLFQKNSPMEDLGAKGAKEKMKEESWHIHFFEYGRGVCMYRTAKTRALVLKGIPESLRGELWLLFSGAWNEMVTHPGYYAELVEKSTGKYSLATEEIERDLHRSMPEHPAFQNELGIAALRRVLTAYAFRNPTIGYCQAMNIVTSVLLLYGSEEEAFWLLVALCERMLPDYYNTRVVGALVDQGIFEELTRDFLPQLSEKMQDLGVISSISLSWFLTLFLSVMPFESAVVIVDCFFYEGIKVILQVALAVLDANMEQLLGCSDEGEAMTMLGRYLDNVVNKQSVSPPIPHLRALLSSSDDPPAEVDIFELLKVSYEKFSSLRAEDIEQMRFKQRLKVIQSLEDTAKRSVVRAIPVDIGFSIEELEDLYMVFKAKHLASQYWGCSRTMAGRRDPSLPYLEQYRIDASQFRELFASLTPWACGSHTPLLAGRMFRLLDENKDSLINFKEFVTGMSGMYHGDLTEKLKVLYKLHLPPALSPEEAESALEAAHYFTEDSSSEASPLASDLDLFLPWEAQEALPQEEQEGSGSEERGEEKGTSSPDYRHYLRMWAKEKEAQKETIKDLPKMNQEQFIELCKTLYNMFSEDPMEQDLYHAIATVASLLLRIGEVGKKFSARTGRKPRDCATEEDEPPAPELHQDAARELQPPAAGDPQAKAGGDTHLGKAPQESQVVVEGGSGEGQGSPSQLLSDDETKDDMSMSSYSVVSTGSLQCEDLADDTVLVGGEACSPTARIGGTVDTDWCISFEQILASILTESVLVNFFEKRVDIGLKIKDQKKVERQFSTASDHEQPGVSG
# ± gives the standard deviation of the averaged measurements. The entries are a selection whose mix differs from that of the whole data set.
# Compound: Nc1ncnc2c1ncn2[C@@H]1O[C@H](COP(=O)(O)OP(=O)(O)OP(=O)(O)O)[C@@H](O)[C@H]1O [adenosine triphosphate]
# Test: NP40-soluble protein abundance relative to vehicle (solubility fold change) (ratio); higher = more soluble protein in presence of ATP
# Conditions: concentration: 10mM
# Procedure, shortened: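 Crude Jurkat lysate, prepared by Dounce homogenisation, was exposed to eight concentrations from 0.1 to 10 mM for 10 min at room temperature and then 3 min at 37 °C. Solubilisation used 0.8% NP40 with benzonase for 60 min at 4 °C, followed by ultracentrifugation and TMT labelling of the supernatant for LC-MS/MS. After vsn normalisation of intensities, each value is the fold change against the detergent-processed vehicle within each replicate, across three independent experiments.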
row,Target,NP40-soluble protein abundance
1,RCSD1 (UniProt Q6JBY9),0.692 ± 0.063
2,Q5VV50 and related entries (UniProt Q5VV52),1.24 ± 0.062
3,UniProt Q6P1J9,0.799 ± 0.019
4,HABP4 (UniProt Q5JVS0),1.4 ± 0.19
5,NXN (UniProt Q6DKJ4),1.03 ± 0.039
6,UniProt Q5TC82 and related entries,1.01 ± 0.035
7,UniProt Q5JTD0 and related entries,0.921 ± 0.057
8,TMEM41B (UniProt Q5BJD5),0.957 ± 0.069
9,Q5JY65 and related entries (UniProt Q9BZJ0),1.04 ± 0.068
10,UniProt Q5EBL8 and related entries,1.01 ± 0.07
11,UniProt Q6IQ49 and related entries,0.94 ± 0.027
12,Q5TH58 and related entries (UniProt Q9H6K1),0.985 ± 0.092
13,UniProt Q6NTF9 and related entries,1.02 ± 0.08
14,UniProt Q6PD74 and related entries,0.948 ± 0.078
15,UniProt Q5TDH0 and related entries,0.956 ± 0.044
16,UniProt Q5W0U4 and related entries,1.11 ± 0.021
17,UniProt Q5THK1 and related entries,0.922 ± 0.094
18,UniProt Q5M775 and related entries,0.908 ± 0.054
19,ERAP2 (UniProt Q6P179),0.934 ± 0.029
20,HSD17B12 (UniProt Q53GQ0),0.954 ± 0.043
21,UniProt Q5T0N5-3|Q5T0N5-4,0.991 ± 0.019
22,UniProt Q6P2H3 and related entries,1.04 ± 0.017
23,UniProt Q6IAA8,0.913 ± 0.077
24,UniProt Q5VZE5,1.03 ± 0.064
25,UniProt Q66K14 and related entries,0.966 ± 0.025

# From no. 20 as far as 21, as listed above:
row,Target,NP40-soluble protein abundance
20,HSD17B12 (UniProt Q53GQ0),0.954 ± 0.043
21,UniProt Q5T0N5-3|Q5T0N5-4,0.991 ± 0.019
